# Percent effect of library compounds

Measurements from “University of Dundee, Small-Polar-MMV Screening Library” (2021), ChEMBL document CHEMBL3988442.

T. brucei: 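Whole-parasite assay of Trypanosoma brucei over 72 hours; the read-out is not stated. Tested at 30 µM. Direction is inferred from retests: higher values go with stronger inhibition. Values scatter widely below zero; nearly all retest evidence comes from the higher of the two concentrations used. Size under these conditions: about 64,000 compounds, about 940 of them at 50% or above in at least one test.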
Toxoplasma: 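Assay of Toxoplasma gondii numbers, read through their beta-galactosidase reporter with a colour substrate. Concentration: 10 µM. Higher reads as fewer parasites (inferred from which compounds were picked for retests). Size under these conditions: about 67,000 compounds, about 260 of them at 50% or above in at least one test.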

The filed quantity is “Percent Effect” (%).
The record does not define 0% and 100%; most values in the screen are far below 50% and negative numbers occur (in some assays of this library far below -100).
The compounds are a random part of those screened.

{"structure": "CCS(=O)(=O)N1CCc2nc(C3CCN(C(=O)C4CC4)C3)nc(O)c2C1", "stereo": "stereo not given", "T. brucei": 2.261, "Toxoplasma": -1.24}
{"structure": "Cl.O[C@@H]1CN(Cc2cccc(F)c2)CC[C@H]1NCc1ccccn1", "T. brucei": 14.27, "Toxoplasma": 21.45}
{"structure": "O=C(COc1coc(CN2CCCCC2)cc1=O)NCc1ccccc1", "T. brucei": -6.424, "Toxoplasma": -1.257}
{"structure": "Cc1nccn1C1CCCN(C(=O)c2ccc3c(c2)OCCCO3)C1", "stereo": "stereo not given", "T. brucei": -18.08, "Toxoplasma": -29.98}
{"structure": "Cc1cccc(CN2CCCC(O)(CNCCc3c[nH]cn3)C2=O)c1", "stereo": "stereo not given", "T. brucei": -38.33, "Toxoplasma": -0.1729}
{"structure": "COc1cccc(O[C@H]2CCN(c3nc(C)cc(C)n3)CC[C@@H]2O)c1", "T. brucei": -10.89, "Toxoplasma": 14.98}
{"structure": "O=C(O)C(F)(F)F.[H][C@@]12COC[C@]1(CN1CCOCC1)CN(S(C)(=O)=O)C2", "T. brucei": -18.4, "Toxoplasma": -4.987}
{"structure": "Cc1nc2ccc(C(=O)N3CCn4c(C)nnc4C3)cc2nc1C", "T. brucei": -3.622, "Toxoplasma": -21.51}
{"structure": "Cc1ccc(CNc2cc3[nH]c(O)nc3cc2C)cc1", "T. brucei": -16.3, "Toxoplasma": 5.066}
{"structure": "CCN1CCN(c2ncc(-c3cc(C)no3)c(-c3ccco3)n2)CC1", "T. brucei": 32, "Toxoplasma": 33.01}
{"structure": "COc1cccc(N2CCC(N3C[C@@H](NC(C)=O)[C@H](C(C)C)C3)CC2)c1", "T. brucei": 15.43, "Toxoplasma": -7.545}
{"structure": "Cc1nc(CN2CCN(C(=O)CC(C)(C)c3ccccc3)CC2)no1", "T. brucei": -32.7, "Toxoplasma": -18.49}
{"structure": "O=C(NCCc1c[nH]cn1)C1CCCN(C2CCOCC2)C1", "stereo": "stereo not given", "T. brucei": 24.49, "Toxoplasma": -3.228}
{"structure": "CCN1CCC(CNC(=O)Nc2cc(C)on2)C1", "stereo": "stereo not given", "T. brucei": 5.355, "Toxoplasma": -2.624}
{"structure": "C=C(C)CN1CCC(NC(=O)Nc2ccc(F)c(C(N)=O)c2)CC1", "T. brucei": 4.706, "Toxoplasma": -0.5682}
{"structure": "CCOC(=O)NCCC(O)c1ccoc1", "stereo": "stereo not given", "T. brucei": -1.649, "Toxoplasma": -29.02}
{"structure": "CCc1nnc(CN2CCCC2Cn2cc(C)cn2)o1", "stereo": "stereo not given", "T. brucei": -9.542, "Toxoplasma": 7.042}
{"structure": "CC(C)c1nc(CN(C)C(=O)c2ccccc2C2CCNC2)cs1", "stereo": "stereo not given", "T. brucei": -4.486, "Toxoplasma": -0.8274}
{"structure": "Cc1nc(C)c(C(=O)NCCNc2ncccc2C#N)s1", "T. brucei": 7.518, "Toxoplasma": -3.893}
{"structure": "Cc1nnc2n1CCN(C(=O)C(C)Oc1ccc(C#N)cc1)C2", "stereo": "stereo not given", "T. brucei": -45.18, "Toxoplasma": 17.28}
{"structure": "CC(C)NC(=O)NCc1cc(-c2cccc(Cl)c2)nn1C", "T. brucei": -21.65, "Toxoplasma": -1.512}
{"structure": "CC1CCCCN1C(=O)c1ccc(=O)[nH]n1", "stereo": "stereo not given", "T. brucei": -17.1, "Toxoplasma": -8.365}
{"structure": "CS(=O)(=O)NCc1cc2n(n1)CCCN(Cc1nc3ccccc3[nH]1)C2", "T. brucei": 28.38, "Toxoplasma": -5.331}
{"structure": "Cc1nc(C)n(CC2CCCN2CCCOc2ccc(C#N)cc2)n1", "stereo": "stereo not given", "Toxoplasma": -6.399}
{"structure": "CC1(C)CN(C(=O)c2cnc(-c3ccccn3)nc2)CC[C@]1(C)O", "T. brucei": 1.905, "Toxoplasma": 5.54}
{"structure": "CCOc1ccc(CNC(=O)N(C)Cc2ncnn2C)cc1C", "T. brucei": -3.709}
{"structure": "CN(Cc1nc2ccccc2o1)CC1CCCN1c1cccnn1", "stereo": "stereo not given", "T. brucei": -3.176, "Toxoplasma": 0.1158}
{"structure": "CC1CCCN(c2ccccc2OCC(=O)NC2CCOCC2)C1", "stereo": "stereo not given", "T. brucei": -6.306, "Toxoplasma": -4.411}
{"structure": "Cc1nc(CCNC(=O)C2CC(=O)N(C(C)C)C2)cs1", "stereo": "stereo not given", "T. brucei": -19.71, "Toxoplasma": -6.154}
{"structure": "CCc1ccc(C(=O)N2CCCC3(CCCC(=O)N3C)C2)cc1", "stereo": "stereo not given", "T. brucei": -25.7, "Toxoplasma": -17.1}
{"structure": "Cc1cnc(-c2nc(O)c3c(n2)CN(C(=O)C2CCCC2)CC3)cn1", "Toxoplasma": -0.0646}
{"structure": "COc1ccc(CN2CCCC(n3cccn3)C2)c(Cl)c1OC", "stereo": "stereo not given", "T. brucei": -60.97, "Toxoplasma": -5.619}
{"structure": "Cc1nn(CN(CC(C)C)C2CC2)c(=O)c2noc(C)c12", "T. brucei": -40.9, "Toxoplasma": 1.19}
{"structure": "CC(CCc1ccccc1)NC(=O)CNCCCN(C)C.O=C(O)C(=O)O", "stereo": "stereo not given", "T. brucei": 2.958, "Toxoplasma": -5.52}
{"structure": "O=C(Nc1cccc(OC(F)F)c1)C1CN(S(=O)(=O)C2CC2)C1", "T. brucei": 6.403, "Toxoplasma": 9.653}
{"structure": "[H][C@@]12CCN(C(=O)c3cccn3C)C[C@@]1([H])O[C@@H](C)C2", "Toxoplasma": -1.883}

The last 3 entries again:

{"structure": "CC(CCc1ccccc1)NC(=O)CNCCCN(C)C.O=C(O)C(=O)O", "stereo": "stereo not given", "T. brucei": 2.958, "Toxoplasma": -5.52}
{"structure": "O=C(Nc1cccc(OC(F)F)c1)C1CN(S(=O)(=O)C2CC2)C1", "T. brucei": 6.403, "Toxoplasma": 9.653}
{"structure": "[H][C@@]12CCN(C(=O)c3cccn3C)C[C@@]1([H])O[C@@H](C)C2", "Toxoplasma": -1.883}